Reference: article doi:10.1101/778639
Results are given in words; binding and its absence hold for the method and conditions named. In cells and extracts the contact can be indirect. A yes stands for co-enrichment or nearness to the bait. Other partners may have been found.

Sequences of proteins named here, by UniProt entry; tags and fusion partners are left off.
UniProt Q9Y812: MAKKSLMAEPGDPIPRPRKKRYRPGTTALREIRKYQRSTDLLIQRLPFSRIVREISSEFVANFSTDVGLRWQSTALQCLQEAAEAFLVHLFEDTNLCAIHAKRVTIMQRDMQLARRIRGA

Biological target: GFP-tagged CENP-A^Cnp1 (S. pombe) (UniProt Q9Y812)
Test: affinity purification with mass spectrometry

B1: Scm3 (HJURP) (protein, UniProt Q9HDY7 1-336)
chain: MCNRQPKAVDLPPNYSCPHLLSFQSVEFNTNPTACDDVFCKRIESEKKYNDFLESLFKKYGRDTSDIADEVDLATGEIIVNNGHLEALKTKDDIWDPTFNNLEISASNGYEKKLDSSIGNPGEKAVSPVHIEDFQSPQIYKFKNLSLRDEMVSDCVFADEVPLASLFVENVCNETIPSQSCVRLKINDKTRKVDASALEKKSCLLPNSSGTLTDQRGLDTIKHKSIEQNEILHVISDTLSSPRRRNPLLSSPKTPLRRSFSKSKVRNSNSTKRRNFISLISMISPRPNLSTHHFNLGFQPLSQQTSFSGSSTQNPHSSSTCKKAFCFQCISESKKC
B1 was tested, and the binding was “binds”.

B2: Sim3 (NASP) (protein, UniProt Q9USQ4 1-396)
chain: MSSDTKTLENSKGNSATDADTKNPSSSDSRAIEQLVTQGNMAYAQKNYEEAVDKYGQALMQSESIHGSESLENRNVLWLYGKSLFQIAIENSQVLGNALGAKESVSQATESFEEPEAIGSFTFSGQKIENKYTVNEENSSIAHPEKESEEKETNEASPASEEDEDDFNVAWEVLDLTRVMQSKAVDAYPDSKDEKIRLADIYDLLGELSLEIENFSQASQDLKTALEWKEKVYNVSNNTLLSEAHYKLALALEFTNPEDPSNKSRACEHVEKAAEILKNVLNERENEVTDKKGKGKQKAEESTLTSDLENLREMLSELEQKTLDLKHGAPSLEEAVMSKMHESSLLSKDSSSLAQAVAEAVKNANDLGGLVKRKRTKQEVTSSSQKEGPKDKKKKD
In the case of B2, the binding is reported as “binds”.
